Assay results taken from the supplement of paper PMC12462457.
± gives the standard deviation of the averaged measurements. This is one part of the list. Repeats in this data set agree poorly, so a single value says little.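 Cells were counted by imaging DAPI-stained nuclei, and cells lacking phalloidin-stained cytoplasm were excluded as dead. Each well's count was divided by the median count of the vehicle wells on the same plate, and values were averaged over two replicate plates.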

Test system: OVCAR8
Experiment: cell count relative to DMSO vehicle (fold change); higher = more surviving senescent cells (less killing)
Conditions: senescence inducer: cisplatin 10 µM 48 h, then 6 d recovery (CP senescent), exposure time 24 h

| Structure (SMILES) | cell count (compound dose 1 µM) | cell count (compound dose 5 µM) |
| --- | --- | --- |
| O=C1CCC(N2Cc3cc(CNC(=O)C(F)(F)c4ccc(Cl)cc4)ccc3C2=O)C(=O)N1 (centres undefined) [Cereblon modulator 1] | 1.212 ± 0.011 | 1.13 ± 0.23 |
| CC1CCC2(OC1)OC1CC3C4CC=C5CC(OC6OC(CO)C(O)C(O)C6OC6OC(C)C(O)C(O)C6O)CCC5(C)C4CCC3(C)C1C2C (centres undefined) [Prosapogenin A] | 1.09 ± 0.028 | 0.287 ± 0.16 |
| O=c1cc(-c2ccc(O)c(O)c2)oc2cc(O[C@@H]3O[C@H](CO)[C@@H](O)[C@H](O)[C@H]3O)cc(O)c12 [Cynaroside] | 1.1 ± 0.18 | 1.28 ± 0.31 |
| CC1=C(CO)C(=O)O[C@@H]([C@@H](C)[C@H]2CC[C@H]3[C@@H]4C[C@H]5O[C@]56[C@@H](O)C=CC(=O)[C@]6(C)[C@H]4CC[C@]23C)C1 [Withaferin A] | 0.698 ± 0.17 | 0.023 ± 0.016 |
| CC(=O)OC1CC2CCC1(C)C2(C)C (centres undefined) [Bornyl acetate] | 0.931 ± 0.11 | 0.783 ± 0.019 |
| O=C(Nc1cccc(Nc2cc(Nc3cccc(C(F)(F)F)c3)ncn2)c1)C1CC1 | 1.02 ± 0.083 | 1.07 ± 0.06 |
| CCOC(=O)c1cnn(-c2ccccc2)c1NC(=O)c1cc2nc(-c3ccco3)cc(C(F)(F)Cl)n2n1 [Mycro 3] | 1.16 ± 0.03 | 1.16 ± 0.13 |
| COc1cc(C(N)=O)ccc1NC(=O)[C@@H]1N[C@@H](CC(C)(C)C)[C@@]2(C(=O)Nc3cc(Cl)ccc32)[C@H]1c1cccc(Cl)c1F | 0.958 ± 0.16 | 0.876 ± 0.24 |
| CC(C)n1nc(-c2cc3cc(O)ccc3[nH]2)c2c(N)ncnc21 [Torkinib (PP242)] | 0.846 ± 0.13 | 0.525 ± 0.11 |
| O=C(CCCCCCNC(=O)c1cnc(N(c2ccccc2)c2ccccc2)nc1)NO [Ricolinostat (ACY-1215)] | 0.766 ± 0.042 | 0.355 ± 0.18 |
| CC(C)CC(=O)Nc1n[nH]c2c1CN(C(=O)C1CCN(C)CC1)C2(C)C | 1.11 ± 0.2 | 1.12 ± 0.073 |
| CC(=O)N1c2ccc(-c3ccc(C(=O)O)cc3)cc2[C@H](Nc2ccc(Cl)cc2)C[C@@H]1C | 0.677 ± 0.16 | 0.756 ± 0.05 |
| Nc1nc(F)nc2c1ncn2[C@@H]1O[C@H](CO)[C@@H](O)[C@@H]1O [Fludarabine] | 1.17 ± 0.15 | 1.16 ± 0.18 |
| Nc1nc(Cl)nc2c1ncn2[C@@H]1O[C@H](CO)[C@@H](O)[C@@H]1F [Clofarabine] | 0.847 ± 0.17 | 0.712 ± 0.0028 |
| CN1CC[C@H](c2c(O)cc(O)c3c(=O)cc(-c4ccccc4Cl)oc23)[C@H](O)C1 [Flavopiridol] | 0.933 ± 0.034 | 0.699 ± 0.011 |
| COc1cc(/C=C/C(O)=C/C(=O)/C=C/c2ccc(O)cc2)ccc1O [Demethoxycurcumin] | 0.993 ± 0.19 | 0.587 ± 0.061 |
| CC(C)[C@H]1C(=O)N[C@@H](CCCNC(=N)N)C(=O)NCC(=O)N[C@@H](CC(=O)O)C(=O)N[C@H](Cc2ccccc2)C(=O)N1C [Cilengitide] | 0.234 ± 0.023 | 0.069 ± 0.055 |

Reformatted: entries from further up.
Structure (SMILES)	cell count (compound dose 1 µM)	cell count (compound dose 5 µM)
CC1=C(CO)C(=O)O[C@@H]([C@@H](C)[C@H]2CC[C@H]3[C@@H]4C[C@H]5O[C@]56[C@@H](O)C=CC(=O)[C@]6(C)[C@H]4CC[C@]23C)C1 [Withaferin A]	0.698 ± 0.17	0.023 ± 0.016
CC(=O)OC1CC2CCC1(C)C2(C)C (centres undefined) [Bornyl acetate]	0.931 ± 0.11	0.783 ± 0.019
